Assay results taken from PMC7819943, “Rice protein-binding microarrays: a tool to detect cis-acting elements near promoter regions in rice”.
The list shows a part of the results.

Target: T1, OsSMF1 (Oryza sativa, UniProt Q6ZLB0 1-436)
T1 sequence: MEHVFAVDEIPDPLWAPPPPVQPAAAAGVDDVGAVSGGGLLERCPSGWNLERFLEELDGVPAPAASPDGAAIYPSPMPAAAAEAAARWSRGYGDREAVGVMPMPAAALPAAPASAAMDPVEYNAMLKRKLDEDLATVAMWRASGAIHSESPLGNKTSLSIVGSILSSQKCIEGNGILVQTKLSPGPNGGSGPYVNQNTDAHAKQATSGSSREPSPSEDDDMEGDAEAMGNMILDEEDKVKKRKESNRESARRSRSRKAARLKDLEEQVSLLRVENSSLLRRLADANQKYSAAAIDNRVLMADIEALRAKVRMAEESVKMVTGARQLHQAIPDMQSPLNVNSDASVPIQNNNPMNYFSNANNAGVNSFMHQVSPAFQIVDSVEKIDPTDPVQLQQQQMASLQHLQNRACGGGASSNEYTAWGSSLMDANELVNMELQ
Assay: protein-binding microarray (RPBM); PBS, 2% BSA, 51.3 ng/ul salmon testes DNA, 50 uM zinc acetate, 200 nM TF, 25 C, 1 h; high values mean tight binding
Settings: protein: recombinant; tags: N-terminal polyhistidine and DsRed monomer fusion (pET32a); chain copies: 2; label: CyDye5-dUTP incorporated in the synthesized complementary strand; 3' TTTTT single-stranded linker to array surface; dsDNA, one strand shown
Method in brief: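 Binding signal here means per-feature fluorescence intensity in arbitrary units. The values were read on an Axon 4000B scanner after a custom Agilent array, double-stranded by primer extension with Cy5-dUTP, was incubated with 200 nM protein at 25 °C for 1 h in PBS with 2% BSA, salmon testes DNA and 50 µM zinc acetate, then washed. The proteins were transcription factors with an N-terminal polyhistidine tag and DsRed, expressed in E. coli BL21-CodonPlus and purified on Ni–NTA.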

| Sequence | binding signal |
| --- | --- |
| TGCATGTCAAACAGCTGGGTGCATCACCCACCGCGAATCGCGGAGTCACCTAGTGCAG | 3830 fluorescence intensity (a.u.) |
| CATCGCCGCGCGTGCACCAGAGGACCAGACCGACCGGCGTCGGAGTCACCTAGTGCAG | 50200 fluorescence intensity (a.u.) |
| GTCGGTGAGAGATACTTCACTGAGCTTATAAATAAGAGCACGGAGTCACCTAGTGCAG | 26300 fluorescence intensity (a.u.) |
| CCCGATCCCCGTGGCCACACCCTACCAGTCTTCCAGATCTCGGAGTCACCTAGTGCAG | 4050 fluorescence intensity (a.u.) |
| CCCTCCCACCAATCAATCCACGTGCTCCAGAACCCTAACCCGGAGTCACCTAGTGCAG | 4270 fluorescence intensity (a.u.) |
| CACCGCCGCCCCAGCGCCGCCCCGTTCGCGCGAGCCCGCCCGGAGTCACCTAGTGCAG | 22300 fluorescence intensity (a.u.) |
| CAAGGATCACATCCTGAAGCTGGAGCCAACAAGCACACAGCGGAGTCACCTAGTGCAG | 4430 fluorescence intensity (a.u.) |
| TACAGTCCACACACAACGCCGAACCCTGCAGTGCCTACCTCGGAGTCACCTAGTGCAG | 3250 fluorescence intensity (a.u.) |
| AAATTGTAAGGCTCTAGTGGCCGACGTGTAATAATAATCCCGGAGTCACCTAGTGCAG | 5680 fluorescence intensity (a.u.) |
| AATTTTAAGATGTGTCAGCTCAGTCTTTTGGAGATGTTTTCGGAGTCACCTAGTGCAG | 3640 fluorescence intensity (a.u.) |
| GTTCATCGCGTATGCGCGCGGCAGCCGGCCGGTGGGCGACCGGAGTCACCTAGTGCAG | 3220 fluorescence intensity (a.u.) |
| TATATTTCGCCAACACGCCATCCAAACACTTGGATCATGCCGGAGTCACCTAGTGCAG | 3570 fluorescence intensity (a.u.) |
| ATTTGAGGGCTGGATGACTAGGTATAAAATGGGGCGGGCTCGGAGTCACCTAGTGCAG | 7100 fluorescence intensity (a.u.) |
| AGCGTATTTCAGGATCACAGGTACGTAATCGTCAGCACAACGGAGTCACCTAGTGCAG | 5530 fluorescence intensity (a.u.) |
| CTCCTCCCCAACCAATATAGCTCCTAGCTGCTACGAGTCCCGGAGTCACCTAGTGCAG | 30800 fluorescence intensity (a.u.) |
| GGTGCCATGTACCATGACGCGACAGCGACCGTCTCTCTTCCGGAGTCACCTAGTGCAG | 3290 fluorescence intensity (a.u.) |
| CCTTGAAGTAGACGAGGCTGGTGACGCAGAACTTGACCCACGGAGTCACCTAGTGCAG | 7680 fluorescence intensity (a.u.) |
| CCGCTATCGTCTATTGGGCGTGGCACGGATTTGGGGATCCCGGAGTCACCTAGTGCAG | 4450 fluorescence intensity (a.u.) |
| TCGATGCTCCAACCTACCTTGCCGACGCCGTCACCACGACCGGAGTCACCTAGTGCAG | 3520 fluorescence intensity (a.u.) |
| TTTGGTAGCTTCTTCTATTGTGAATCAGGTATCATGCAGCCGGAGTCACCTAGTGCAG | 3260 fluorescence intensity (a.u.) |
| CGCGACGCTGGCGATGAGTCATGCTGGACGAAGTAGAAGGCGGAGTCACCTAGTGCAG | 7520 fluorescence intensity (a.u.) |

2 entries from above, with bars between the fields.
Sequence | binding signal
CCCTCCCACCAATCAATCCACGTGCTCCAGAACCCTAACCCGGAGTCACCTAGTGCAG | 4270 fluorescence intensity (a.u.)
TATATTTCGCCAACACGCCATCCAAACACTTGGATCATGCCGGAGTCACCTAGTGCAG | 3570 fluorescence intensity (a.u.)

Continuation.

| Sequence | binding signal |
| --- | --- |
| TATAAATATGGATACCATATGTATAGATTAGTCACTTCAACGGAGTCACCTAGTGCAG | 4820 fluorescence intensity (a.u.) |
| CTTCTGCACCTTCAGTCATACAATATGTCAAGTCCTATGTCGGAGTCACCTAGTGCAG | 3680 fluorescence intensity (a.u.) |
| TAGAAAGGTCGTCCCGCGGCACGTCAACGTTCAAACCAGCCGGAGTCACCTAGTGCAG | 5620 fluorescence intensity (a.u.) |
| TTAATTCCATGAATAGCACACCATATACGGTACATGGATCCGGAGTCACCTAGTGCAG | 30400 fluorescence intensity (a.u.) |
| CGTTCCAAAATAAGTGCAGTCATGGATATCCATGCCCAGCCGGAGTCACCTAGTGCAG | 3360 fluorescence intensity (a.u.) |
| ACCCGCCTTGGATGGGCCACCGACAGAATTAGGATCCTCTCGGAGTCACCTAGTGCAG | 4040 fluorescence intensity (a.u.) |
| AATCTTTTGAGCCTAATTACGTCATGATTTGACAATGTGGCGGAGTCACCTAGTGCAG | 13700 fluorescence intensity (a.u.) |
| GTTTACTTTAGATCATGTCCTGTCATCGCAGTATAAGGGTCGGAGTCACCTAGTGCAG | 4400 fluorescence intensity (a.u.) |
| TCACTCTCTTCATCTCATGAGCATCTCACTCACTCATCTCCGGAGTCACCTAGTGCAG | 3200 fluorescence intensity (a.u.) |
| GGTGTGGAACGGAGGGAAGATTAACGTGCCACGCTGCTGCCGGAGTCACCTAGTGCAG | 4360 fluorescence intensity (a.u.) |
| GCGAGCAAATTTTCGTGGGGATTAGTATGCGTGTATTTATCGGAGTCACCTAGTGCAG | 3240 fluorescence intensity (a.u.) |
| GAGTTGTCAAGGGATGTCATCCCGACGTCAACACGATGGCCGGAGTCACCTAGTGCAG | 4620 fluorescence intensity (a.u.) |
| GACAGCTCAACGGAGGTGGTATCCTACGACGATGACATGGCGGAGTCACCTAGTGCAG | 6590 fluorescence intensity (a.u.) |
| TTTTAGTTGGTGTGCACGTGTGTACACGTGAGGGCCTGTGCGGAGTCACCTAGTGCAG | 7430 fluorescence intensity (a.u.) |
| TGTGTCTGATTGCGGTGTGCGTGTGTCATCCGTGCAATGACGGAGTCACCTAGTGCAG | 5030 fluorescence intensity (a.u.) |
| TCTGATTGATGATGACGATGATGGCGGCTGTGCAGCTGAACGGAGTCACCTAGTGCAG | 4030 fluorescence intensity (a.u.) |
| TCTTGTAACTAAGCGTATTTGACTGCTGATGCGTGCAATTCGGAGTCACCTAGTGCAG | 5040 fluorescence intensity (a.u.) |
| GCCGCTCGCGCGTGCCACGTCGGATAGCTACAGTGCGCGGCGGAGTCACCTAGTGCAG | 9570 fluorescence intensity (a.u.) |
| TCCCTCTATTTTGCGTCACTAATATGTGGGTCCTTTACCACGGAGTCACCTAGTGCAG | 5320 fluorescence intensity (a.u.) |
| TGATGATGGGGCCTGTCAAATCTTGCCGCCTGACACGGGGCGGAGTCACCTAGTGCAG | 3200 fluorescence intensity (a.u.) |
| CCACGTCGAGGCGTTTGTGTCCTATGCAGGGCAAGTAACTCGGAGTCACCTAGTGCAG | 18900 fluorescence intensity (a.u.) |
